# Test results published in PubChem BioAssay AID493014 (National Center for Advancing Translational Sciences (NCATS), 2011).
# This is one part of the list. Further columns of the screen follow, without active or inactive calls. Compounds called inactive in the main read-out are mostly missing here. Words in brackets tell the shape of the fitted curve; partial curves, single points and poor fits give uncertain potencies.
# Experiment: qHTS Assay to Find Inhibitors of Chronic Active B-Cell Receptor Signaling
# Details: ABC-DLBCL IkBa-CBG/CBR reporter, luminescence ratio (green luciferase fused to IkBa over red control in TMD8 lymphoma cells), 4 h
# How it was run: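 Cell line TMD8 (human ABC DLBCL), stably expressing tet-inducible CBG68-IkBa fusion and CBR; IMDM/0.5% FBS; cpd up to 46 uM; dox induction, 4 h, 37C/5% CO2; dual luminescence; green/red ratio; MG132 control.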
# [1] = measured here: CBR red luminescence, cell number
# [2] = measured here: IkBa-CBG green luminescence
Structure (SMILES),AC50 [1],AC50 [2]
Cc1ccc2cc(CN(c3ccccc3)S(=O)(=O)c3ccccc3)c(=O)[nH]c2c1,"2.24 µM [falling, full curve, poor fit]",–
O=C(N/N=C/c1cc(Br)c(O)c(Br)c1O)c1ccc2c(c1)OCCO2,"2.24 µM [falling, full curve]",–
COc1ccc(/C=N/Nc2cc(C)nc(N3CCOCC3)n2)c(OC)c1,"35.5 µM [rising, partial curve, poor fit]",–
CN1C(=O)/C(=C\C(=O)c2cccs2)c2ccccc21,"11.2 µM [falling, partial curve]",–
COc1ccc(C2c3cc(OC)c(OC)cc3CCN2C2CC(=O)N(c3ccccc3)C2=O)cc1OC (stereo not drawn),"0.116 µM [rising, full curve, poor fit]",–
COc1ccc(S(=O)(=O)N2CCOCC2)cc1NC(=O)CSc1ncccn1,"29.1 µM [rising, partial curve, poor fit]",–
C/C(N)=C(/C#N)C(=O)COC(=O)c1cc2c(s1)CCCC2,"12.6 µM [rising, single point]",–
CCOC(=O)c1c(CSC(=N)N)n(C)c2cc(Br)c(OC(C)=O)cc12,"22.4 µM [falling, single point]",–
COC(=O)c1cc(S(=O)(=O)NC2CCC(C)CC2)cn1C (stereo not drawn),"6.31 µM [falling, single point]",–
CC(=O)/C=C/n1c(=S)oc2ccccc21,"20.6 µM [falling, partial curve]","5.17 µM [falling, single point]"
CCNc1oc(-c2ccccc2F)nc1S(=O)(=O)c1ccccc1,"14.1 µM [falling, single point]",–
Cc1cc(SCc2ccccc2C)nc(=O)[nH]1,"3.55 µM [falling, full curve]",–
O=C(CNC(=O)c1cccs1)NCCc1ccco1,"23.1 µM [rising, partial curve, poor fit]",–
COc1cccc(-n2c(SC)nnc2-c2c[nH]c3ccccc23)c1,"17.8 µM [falling, single point]",–
Cc1nn(Cc2c(Cl)cccc2Cl)c(Cl)c1/C=C/C(=O)OCC(=O)NCC(F)(F)F,"0.092 µM [rising, full curve, poor fit]",–
COc1ccc(NC(=O)CSc2ccccn2)c([N+](=O)[O-])c1,"17.8 µM [rising, single point]",–
COc1cccc(/C=C2\SC(=O)N(CCC(=O)N3CCC(C(=O)O)CC3)C2=O)c1,"2.82 µM [falling, full curve]",–
Cc1cc(S(=O)(=O)NCC(=O)O)ccc1F,"2.31 µM [falling, single point]","4.11 µM [rising, partial curve, poor fit]"
c1ccc(C2C/C(=N\N3CCOCC3)c3ccccc3O2)cc1 (stereo not drawn),"0.231 µM [rising, full curve, poor fit]",–
CC(/C=C1\SC(=S)N(NC(=O)c2cccc(O)c2)C1=O)=C\c1ccccc1,"20.6 µM [falling, single point]","32.6 µM [falling, partial curve, poor fit]"

# Arranged by length of the SMILES (low to high): part of the list above
Structure (SMILES),AC50 [1],AC50 [2]
Cc1cc(SCc2ccccc2C)nc(=O)[nH]1,"3.55 µM [falling, full curve]",–
c1ccc(C2C/C(=N\N3CCOCC3)c3ccccc3O2)cc1 (stereo not drawn),"0.231 µM [rising, full curve, poor fit]",–
CC(/C=C1\SC(=S)N(NC(=O)c2cccc(O)c2)C1=O)=C\c1ccccc1,"20.6 µM [falling, single point]","32.6 µM [falling, partial curve, poor fit]"

# Additional structures follow.

Structure (SMILES),AC50 [1],AC50 [2]
COC(=O)c1ccc(/C=C2/SC(=S)N(CCCC(=O)Nc3ccccn3)C2=O)cc1,"13 µM [falling, partial curve]",–
Cc1sc2nc(C3CC3)nc(N3CCN(C(=O)c4ccc(F)cc4)CC3)c2c1C,"35.5 µM [falling, single point]",–
Cc1ccccc1NC(=S)NNC(=O)c1cccc(Br)c1,"4.47 µM [falling, partial curve, poor fit]",–
COc1cccc2cc(C(=O)OCC(=O)NC3CCCC(C)C3C)c(=O)oc12 (stereo not drawn),"6.51 µM [falling, partial curve, poor fit]",–
CCC(=O)N(CC)c1nc(-c2ccc(OC)cc2)cs1,"10 µM [rising, partial curve]",–
O=Cc1ccc(Sc2nnc(-c3ccccc3)o2)c([N+](=O)[O-])c1,"29.1 µM [rising, single point]","29.1 µM [falling, single point]"
O=C(Nc1cccc(NC(=O)c2ccc(-c3cccc(Br)c3)o2)c1)c1ccco1,"0.891 µM [falling, full curve]",–
O=C(CCS(=O)(=O)c1ccc(F)cc1)Nc1nnc(-c2ccco2)o1,"29.1 µM [falling, single point]",–
O=C(CC(c1ccccc1)c1ccccc1)NCC(O)c1ccc([N+](=O)[O-])cc1 (stereo not drawn),"7.94 µM [falling, partial curve, poor fit]",–
COc1cc(NC(=O)CN2C(=O)C(c3ccccc3)=NC23CCCCCC3)cc(OC)c1,"5.17 µM [falling, single point]",–
COc1ccc(C(=O)N/N=C/c2ccccc2OC(=O)c2ccccc2)cc1,"35.5 µM [falling, single point]","3.16 µM [falling, partial curve, poor fit]"
CCOc1cc(N2CCOCC2)c(OCC)cc1NC(=O)Cc1cccc(OC)c1,"8.91 µM [rising, partial curve, poor fit]",–
Cc1ccc(N/N=C2\CC(=O)c3ccccc32)cc1Cl,"3.55 µM [rising, full curve]",–
CN(Cc1cn(C)nc1-c1ccc(Oc2ccccc2)cc1)C1CCOC1 (stereo not drawn),"8.91 µM [rising, partial curve, poor fit]",–
N=C1S/C(=C\c2ccc(-c3cccc(Cl)c3)o2)C(=O)N1c1nccs1,"25.9 µM [rising, single point]","2.31 µM [falling, partial curve, poor fit]"
CCOc1ccc(OCC)c(NC(=O)Cn2cccc2)c1,"29.1 µM [rising, single point]",–
O=C(Nc1cccc(NC(=O)c2cccnc2)c1)c1ccccc1,"8.91 µM [falling, partial curve]",–
CN(CCCC(=O)Nc1ccccc1F)S(=O)(=O)c1ccc(F)cc1,"11.2 µM [falling, partial curve]",–
CN(/N=C/c1cc(Cl)cc(Cl)c1O)C(=S)NC(C)(C)C,"25.1 µM [falling, partial curve, poor fit]",–
COc1nc(NCc2cccnc2)nc(NC2CCCCC2)n1,"29.1 µM [falling, single point]",–

Structure (SMILES),AC50 [1],AC50 [2]
COc1ccc(Cl)cc1NC(=O)C1Cc2ccccc2CN1S(C)(=O)=O (stereo not drawn),"5.01 µM [rising, single point]",–
NC(=O)C(F)(F)C12OC3C4C5CC(C6C5C3C61)C42 (stereo not drawn),"0.651 µM [falling, full curve, poor fit]",–
CCC(CO)NS(=O)(=O)c1cc(-c2nn(C)c(=O)c3ccccc23)ccc1C (stereo not drawn),"0.891 µM [rising, partial curve, poor fit]",–
CCc1ccc2nc(NC(=O)C3CSC4(C)CCC(=O)N34)sc2c1 (stereo not drawn),"32.6 µM [falling, partial curve, poor fit]",–
COC(=O)C1=C(C)NC(C)=C(C(=O)OC)C1c1ccccc1[N+](=O)[O-],"6.31 µM [falling, full curve]","29.1 µM [rising, single point]"
COc1ccc(/C=N/NC(=O)COc2ccccc2-c2ccccc2)cc1,"4.11 µM [rising, full curve]","5.8 µM [falling, partial curve]"
COc1cc(-c2n[nH]c(=S)n2-c2ccc(C)cc2)cc(OC)c1OC,"35.5 µM [falling, single point]","35.5 µM [rising, partial curve, poor fit]"
COc1ccc(CCN(C)C(=O)c2cc(S(=O)(=O)NCc3ccccc3)ccc2C)cc1OC,"1.3 µM [rising, partial curve]",–
COc1ccc(NC(=O)/C(=C\c2cccs2)NC(=O)c2ccco2)cc1,"0.447 µM [falling, partial curve, poor fit]",–
CC(C)C(C)(C#N)NC(=O)CSc1nc2scc(-c3ccco3)c2c(=O)n1-c1ccccc1 (stereo not drawn),"3.55 µM [falling, partial curve, poor fit]",–
COc1cccc(C2CNC3(CCCC(C)C3)c3[nH]c4ccccc4c32)c1OC (stereo not drawn),"10 µM [falling, partial curve]",–
COC(=O)c1ccc(Cl)c(-c2ccc(/C=N/NC(=O)Nc3ccccc3)o2)c1,"11.6 µM [rising, partial curve, poor fit]",–
Nc1ccccc1SCc1csc(-c2ccc(Cl)cc2)n1,"0.708 µM [rising, full curve, poor fit]",–
COc1ccc(C2CC(c3ccccc3)=NN2C(=O)CN2CCN(Cc3ccccc3)CC2)cc1 (stereo not drawn),"15.8 µM [rising, partial curve, poor fit]",–
CCn1c(=O)c([N+](=O)[O-])c(NCCN(C)C)c2ccccc21,"3.98 µM [falling, single point]",–
COc1ccc(CNC(=O)CN2C(=O)CSc3ccc(S(=O)(=O)N4CCOCC4)cc32)c(OC)c1,"11.2 µM [rising, partial curve, poor fit]",–
CC(NC(=O)c1ccc(CS(=O)(=O)c2ccc(Cl)cc2)o1)c1ccc2c(c1)OCCO2 (stereo not drawn),"16.4 µM [falling, single point]",–
COc1ccc(NC(=O)c2ccco2)cc1NC(=O)COc1ccccc1,"0.562 µM [rising, full curve, poor fit]",–
CCOC(=O)c1ccc(NC(=O)c2c(NCc3cccs3)sc3c2CCCC3)cc1,"2.51 µM [falling, full curve]",–
